Data: the supplement of paper PMC10849652
Some of the results follow.

Chains of the proteins cited; added tags and fusions are not shown. Lines headed by an entry give the natural chain unless they say otherwise; changes in a name come on top.
UniProt Q96E16: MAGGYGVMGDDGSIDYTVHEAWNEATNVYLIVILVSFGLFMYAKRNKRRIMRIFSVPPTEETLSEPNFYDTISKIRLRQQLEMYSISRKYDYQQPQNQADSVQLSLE
UniProt Q13425: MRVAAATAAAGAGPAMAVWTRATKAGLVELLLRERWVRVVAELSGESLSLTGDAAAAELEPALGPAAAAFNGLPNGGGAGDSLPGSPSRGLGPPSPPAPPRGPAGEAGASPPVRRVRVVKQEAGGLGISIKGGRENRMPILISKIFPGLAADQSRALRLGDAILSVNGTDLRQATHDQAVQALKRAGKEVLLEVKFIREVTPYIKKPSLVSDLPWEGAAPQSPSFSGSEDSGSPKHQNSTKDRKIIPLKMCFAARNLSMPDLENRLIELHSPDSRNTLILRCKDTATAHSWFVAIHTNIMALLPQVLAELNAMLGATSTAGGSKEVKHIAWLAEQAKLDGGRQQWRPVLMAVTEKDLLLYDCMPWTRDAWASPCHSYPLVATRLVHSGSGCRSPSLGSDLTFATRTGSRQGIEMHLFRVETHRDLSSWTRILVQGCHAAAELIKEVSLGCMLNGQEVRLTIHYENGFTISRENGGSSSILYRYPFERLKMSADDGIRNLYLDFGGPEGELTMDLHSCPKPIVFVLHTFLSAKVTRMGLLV
UniProt P53814: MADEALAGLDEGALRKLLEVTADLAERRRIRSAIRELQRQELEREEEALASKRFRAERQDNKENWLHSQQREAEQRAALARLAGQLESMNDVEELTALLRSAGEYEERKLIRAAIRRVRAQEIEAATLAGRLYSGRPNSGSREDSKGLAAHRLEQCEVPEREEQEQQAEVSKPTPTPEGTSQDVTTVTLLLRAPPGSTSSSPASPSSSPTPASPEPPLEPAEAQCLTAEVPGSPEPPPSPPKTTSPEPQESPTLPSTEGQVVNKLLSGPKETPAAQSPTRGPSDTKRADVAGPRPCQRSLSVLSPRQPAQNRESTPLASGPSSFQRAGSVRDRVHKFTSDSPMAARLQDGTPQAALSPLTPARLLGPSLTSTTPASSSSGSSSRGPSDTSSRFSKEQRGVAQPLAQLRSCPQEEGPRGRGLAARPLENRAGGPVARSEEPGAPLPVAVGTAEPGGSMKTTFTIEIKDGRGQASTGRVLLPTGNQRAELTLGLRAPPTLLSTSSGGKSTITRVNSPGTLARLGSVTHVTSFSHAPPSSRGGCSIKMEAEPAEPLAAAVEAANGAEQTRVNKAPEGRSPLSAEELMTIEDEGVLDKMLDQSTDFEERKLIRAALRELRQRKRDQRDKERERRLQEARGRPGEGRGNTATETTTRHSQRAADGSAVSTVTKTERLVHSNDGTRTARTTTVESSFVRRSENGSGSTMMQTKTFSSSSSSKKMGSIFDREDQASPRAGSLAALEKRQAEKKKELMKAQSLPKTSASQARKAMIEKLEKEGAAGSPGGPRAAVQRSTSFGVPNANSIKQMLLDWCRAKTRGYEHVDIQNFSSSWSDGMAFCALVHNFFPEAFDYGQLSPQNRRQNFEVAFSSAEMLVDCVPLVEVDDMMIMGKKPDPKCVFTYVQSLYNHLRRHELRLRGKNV
UniProt Q0VAQ4: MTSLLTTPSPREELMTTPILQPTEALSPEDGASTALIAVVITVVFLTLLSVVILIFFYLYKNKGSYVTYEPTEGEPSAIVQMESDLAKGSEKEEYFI
UniProt Q92543: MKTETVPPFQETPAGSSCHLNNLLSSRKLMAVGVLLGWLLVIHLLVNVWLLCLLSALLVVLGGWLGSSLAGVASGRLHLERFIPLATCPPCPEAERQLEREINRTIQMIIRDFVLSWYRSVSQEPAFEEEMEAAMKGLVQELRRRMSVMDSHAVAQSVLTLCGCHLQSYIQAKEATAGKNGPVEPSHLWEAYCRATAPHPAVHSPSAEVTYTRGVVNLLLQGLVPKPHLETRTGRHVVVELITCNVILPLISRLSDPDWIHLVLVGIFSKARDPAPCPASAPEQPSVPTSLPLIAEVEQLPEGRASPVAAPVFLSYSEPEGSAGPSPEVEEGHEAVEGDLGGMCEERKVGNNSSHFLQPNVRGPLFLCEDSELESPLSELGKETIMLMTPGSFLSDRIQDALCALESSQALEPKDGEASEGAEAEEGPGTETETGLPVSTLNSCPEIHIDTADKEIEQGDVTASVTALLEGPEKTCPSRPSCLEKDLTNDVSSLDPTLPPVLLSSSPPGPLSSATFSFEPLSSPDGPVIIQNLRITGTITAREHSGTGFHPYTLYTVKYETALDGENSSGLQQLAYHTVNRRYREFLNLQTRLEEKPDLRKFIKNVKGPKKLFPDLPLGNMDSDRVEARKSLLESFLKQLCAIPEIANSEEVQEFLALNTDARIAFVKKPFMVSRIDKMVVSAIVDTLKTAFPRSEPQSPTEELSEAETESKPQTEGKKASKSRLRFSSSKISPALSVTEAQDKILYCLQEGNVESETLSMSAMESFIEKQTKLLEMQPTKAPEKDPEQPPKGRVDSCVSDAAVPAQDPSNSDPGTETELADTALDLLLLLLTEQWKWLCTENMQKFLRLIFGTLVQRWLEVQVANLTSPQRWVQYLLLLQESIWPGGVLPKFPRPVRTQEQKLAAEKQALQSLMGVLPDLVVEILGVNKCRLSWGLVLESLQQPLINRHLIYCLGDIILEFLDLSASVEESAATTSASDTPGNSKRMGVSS
UniProt P02814: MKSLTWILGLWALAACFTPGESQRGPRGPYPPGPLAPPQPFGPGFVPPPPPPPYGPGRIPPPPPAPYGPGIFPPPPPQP
UniProt P51531, whole entry, looked up: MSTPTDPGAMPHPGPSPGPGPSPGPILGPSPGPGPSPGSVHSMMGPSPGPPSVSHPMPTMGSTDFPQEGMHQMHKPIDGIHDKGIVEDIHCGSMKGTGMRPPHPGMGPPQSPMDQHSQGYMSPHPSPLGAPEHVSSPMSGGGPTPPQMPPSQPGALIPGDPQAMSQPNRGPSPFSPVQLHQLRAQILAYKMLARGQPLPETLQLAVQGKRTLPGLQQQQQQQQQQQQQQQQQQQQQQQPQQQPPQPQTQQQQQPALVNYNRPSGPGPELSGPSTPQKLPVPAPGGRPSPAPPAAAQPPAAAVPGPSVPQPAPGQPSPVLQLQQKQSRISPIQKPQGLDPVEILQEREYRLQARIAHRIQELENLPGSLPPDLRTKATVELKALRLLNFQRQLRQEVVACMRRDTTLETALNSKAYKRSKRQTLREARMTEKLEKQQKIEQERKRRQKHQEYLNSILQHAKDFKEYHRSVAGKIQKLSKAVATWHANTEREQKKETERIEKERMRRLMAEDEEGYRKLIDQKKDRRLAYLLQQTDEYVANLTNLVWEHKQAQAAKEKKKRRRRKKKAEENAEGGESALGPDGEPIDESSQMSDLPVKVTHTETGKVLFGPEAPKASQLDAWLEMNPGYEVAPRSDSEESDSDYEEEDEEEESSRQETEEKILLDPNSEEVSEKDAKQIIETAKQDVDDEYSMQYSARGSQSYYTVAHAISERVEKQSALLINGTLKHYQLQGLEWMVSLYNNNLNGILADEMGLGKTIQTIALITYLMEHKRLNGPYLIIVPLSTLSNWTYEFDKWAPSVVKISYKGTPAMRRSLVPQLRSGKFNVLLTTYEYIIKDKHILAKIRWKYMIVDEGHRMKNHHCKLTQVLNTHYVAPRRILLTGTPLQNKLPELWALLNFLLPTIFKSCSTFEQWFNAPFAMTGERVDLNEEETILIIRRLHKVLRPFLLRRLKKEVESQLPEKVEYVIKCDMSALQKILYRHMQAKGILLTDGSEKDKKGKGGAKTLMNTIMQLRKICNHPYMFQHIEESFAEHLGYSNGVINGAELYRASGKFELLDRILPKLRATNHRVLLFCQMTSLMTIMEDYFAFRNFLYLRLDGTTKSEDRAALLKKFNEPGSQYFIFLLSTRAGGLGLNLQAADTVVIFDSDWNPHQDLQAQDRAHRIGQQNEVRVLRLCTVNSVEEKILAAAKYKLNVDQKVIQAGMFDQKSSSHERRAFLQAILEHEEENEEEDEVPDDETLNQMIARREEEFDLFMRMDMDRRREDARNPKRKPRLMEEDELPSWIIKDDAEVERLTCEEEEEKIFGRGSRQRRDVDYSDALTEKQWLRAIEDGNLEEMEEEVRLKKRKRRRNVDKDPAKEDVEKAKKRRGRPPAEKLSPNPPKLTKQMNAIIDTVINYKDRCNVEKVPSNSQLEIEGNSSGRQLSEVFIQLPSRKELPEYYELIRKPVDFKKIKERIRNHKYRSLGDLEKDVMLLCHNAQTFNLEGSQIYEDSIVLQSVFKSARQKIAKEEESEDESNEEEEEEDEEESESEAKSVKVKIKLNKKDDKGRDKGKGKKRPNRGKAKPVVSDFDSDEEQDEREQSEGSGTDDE
UniProt P84022, whole entry, looked up: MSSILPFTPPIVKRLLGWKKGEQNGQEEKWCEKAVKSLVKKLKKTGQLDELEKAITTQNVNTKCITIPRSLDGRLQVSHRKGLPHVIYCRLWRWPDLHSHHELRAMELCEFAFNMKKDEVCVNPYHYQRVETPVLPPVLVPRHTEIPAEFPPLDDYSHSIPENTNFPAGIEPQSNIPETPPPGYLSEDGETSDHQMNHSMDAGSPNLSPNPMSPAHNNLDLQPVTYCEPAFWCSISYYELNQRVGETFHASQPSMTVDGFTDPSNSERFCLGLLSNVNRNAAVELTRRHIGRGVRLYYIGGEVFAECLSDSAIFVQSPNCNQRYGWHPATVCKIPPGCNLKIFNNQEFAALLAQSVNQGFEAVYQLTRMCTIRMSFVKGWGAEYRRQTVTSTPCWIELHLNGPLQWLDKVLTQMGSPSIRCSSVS
UniProt Q86T20: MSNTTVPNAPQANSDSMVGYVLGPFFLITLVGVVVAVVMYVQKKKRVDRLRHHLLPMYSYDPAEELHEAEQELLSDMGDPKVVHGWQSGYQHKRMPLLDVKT
UniProt P58511: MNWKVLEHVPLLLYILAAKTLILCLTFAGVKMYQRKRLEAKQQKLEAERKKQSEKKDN
UniProt O95219: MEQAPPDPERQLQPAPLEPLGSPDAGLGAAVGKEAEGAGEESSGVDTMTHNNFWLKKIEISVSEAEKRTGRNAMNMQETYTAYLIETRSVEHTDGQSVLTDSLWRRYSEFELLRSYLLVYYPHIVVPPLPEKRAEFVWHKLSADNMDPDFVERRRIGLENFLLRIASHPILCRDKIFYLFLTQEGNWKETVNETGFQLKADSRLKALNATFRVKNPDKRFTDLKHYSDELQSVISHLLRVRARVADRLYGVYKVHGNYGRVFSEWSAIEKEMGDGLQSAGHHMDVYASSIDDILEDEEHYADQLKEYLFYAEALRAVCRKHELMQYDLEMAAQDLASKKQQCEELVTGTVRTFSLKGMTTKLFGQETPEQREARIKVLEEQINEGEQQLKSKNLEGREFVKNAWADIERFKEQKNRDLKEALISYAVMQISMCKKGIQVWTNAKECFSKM
UniProt Q8TAD8: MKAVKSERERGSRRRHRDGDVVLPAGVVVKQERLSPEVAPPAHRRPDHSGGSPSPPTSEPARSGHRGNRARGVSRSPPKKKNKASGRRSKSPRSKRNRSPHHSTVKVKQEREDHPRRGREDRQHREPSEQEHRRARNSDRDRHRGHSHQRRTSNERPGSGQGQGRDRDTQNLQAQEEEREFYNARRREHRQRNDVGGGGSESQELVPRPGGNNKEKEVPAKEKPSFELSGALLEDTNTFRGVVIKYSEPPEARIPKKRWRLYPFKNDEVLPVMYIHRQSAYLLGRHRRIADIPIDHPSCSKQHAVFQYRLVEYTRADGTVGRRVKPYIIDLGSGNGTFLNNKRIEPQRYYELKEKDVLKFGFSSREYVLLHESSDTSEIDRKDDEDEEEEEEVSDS
UniProt Q5VYV7: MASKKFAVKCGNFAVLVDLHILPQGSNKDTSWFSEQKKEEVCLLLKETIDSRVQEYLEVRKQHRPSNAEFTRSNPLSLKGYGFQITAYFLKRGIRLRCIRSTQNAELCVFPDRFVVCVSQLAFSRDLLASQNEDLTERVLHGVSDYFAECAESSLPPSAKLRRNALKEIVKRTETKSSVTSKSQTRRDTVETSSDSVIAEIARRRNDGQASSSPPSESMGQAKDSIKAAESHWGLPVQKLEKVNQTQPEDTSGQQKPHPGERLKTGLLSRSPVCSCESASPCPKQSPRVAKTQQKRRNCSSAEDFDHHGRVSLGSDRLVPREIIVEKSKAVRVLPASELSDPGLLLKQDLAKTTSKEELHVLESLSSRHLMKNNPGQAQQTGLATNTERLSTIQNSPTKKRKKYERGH
UniProt Q3SY56: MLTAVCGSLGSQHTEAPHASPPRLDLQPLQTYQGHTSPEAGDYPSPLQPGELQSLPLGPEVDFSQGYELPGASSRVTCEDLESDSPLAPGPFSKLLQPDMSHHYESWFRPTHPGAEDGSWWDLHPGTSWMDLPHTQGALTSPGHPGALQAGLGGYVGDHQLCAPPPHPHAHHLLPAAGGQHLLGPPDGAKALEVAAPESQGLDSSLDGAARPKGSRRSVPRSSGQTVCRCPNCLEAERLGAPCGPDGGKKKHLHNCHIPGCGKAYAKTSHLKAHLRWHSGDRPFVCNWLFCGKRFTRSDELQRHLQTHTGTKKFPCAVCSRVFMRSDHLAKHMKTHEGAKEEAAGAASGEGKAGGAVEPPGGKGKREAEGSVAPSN

Key:
Assay in all cases: log2 fold change, soluble protein after heating vs DMSO (PISA); higher = thermal stabilisation; K562 cells, 10 uM, 30 min; active = over 0.2 and 3.5 SD of the protein, either way, in both replicates (recomputed)
idasanutlin = compound: COc1cc(C(=O)O)ccc1NC(=O)[C@@H]1N[C@@H](CC(C)(C)C)[C@](C#N)(c2ccc(Cl)cc2F)[C@H]1c1cccc(Cl)c1F [idasanutlin]
Summary of the method: (§1)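 For each measurement, 10 μM compound was applied for 30 min to K562 cells at 2×10^6 cells/mL. Aliquots were heated for 3 min across 48°C-58°C, pooled, and extracted in PBS with 0.5% NP-40 at 4°C; the supernatant after 21,000xg for 90 min was soluble protein. This was quantified by TMTpro 16plex LC-MS/MS with channel sums equalised, and thermal stability was reported relative to control samples from duplicates, on a log2 fold-change scale.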

[1] = compound: COc1cc2nc(-c3cc(F)ccc3O)nc(N[C@@H]3CNC[C@H]3C(C)(C)O)c2cc1OC
Summary of the method: as §1

lapatinib = compound: CS(=O)(=O)CCNCc1ccc(-c2ccc3ncnc(Nc4ccc(OCc5cccc(F)c5)c(Cl)c4)c3c2)o1 [lapatinib]
Summary of the method: as §1

alisertib = compound: COc1cc(Nc2ncc3c(n2)-c2ccc(Cl)cc2C(c2c(F)cccc2OC)=NC3)ccc1C(=O)O [alisertib]
Summary of the method: as §1

[2] = compound: COc1cccc2cc(-c3nc([C@H]4CC[C@H](C(=O)O)CC4)n4ncnc(N)c34)[nH]c12
Summary of the method: as §1

filanesib = compound: CON(C)C(=O)N1N=C(c2cc(F)ccc2F)S[C@@]1(CCCN)c1ccccc1 [filanesib]
Summary of the method: as §1

zotarolimus = compound: CO[C@H]1C[C@@H]2CC[C@@H](C)[C@@](O)(O2)C(=O)C(=O)N2CCCC[C@H]2C(=O)O[C@H]([C@H](C)C[C@@H]2CC[C@H](n3cnnn3)[C@H](OC)C2)CC(=O)[C@H](C)/C=C(\C)[C@@H](O)[C@@H](OC)C(=O)[C@H](C)C[C@H](C)/C=C/C=C/C=C/1C [zotarolimus]
Summary of the method: as §1

gefitinib = compound: COc1cc2ncnc(Nc3ccc(F)c(Cl)c3)c2cc1OCCCN1CCOCC1 [gefitinib]
Summary of the method: as §1

pictilisib = compound: CS(=O)(=O)N1CCN(Cc2cc3nc(-c4cccc5[nH]ncc45)nc(N4CCOCC4)c3s2)CC1 [pictilisib]
Summary of the method: as §1

[3] = compound: COC1=CC=C(C=C1)CN2C=CC3=C2C=C(C=C3)C(=O)NO
Summary of the method: as §1

Measured: log2 fold change

SMIM19 (UniProt Q96E16)
inactive: idasanutlin -0.06 | [1] -0.126 | lapatinib 0.031

SMARCAL1 (UniProt Q9NZC9)
inactive: alisertib 0.128 | [2] -0.435

SNTB2 (UniProt Q13425)
inactive: filanesib 0.007 | zotarolimus 0.011 | idasanutlin -0.032 | [1] 0.041 | gefitinib 0.016 | lapatinib -0.013 | pictilisib 0.095

SLC8B1 (UniProt Q6J4K2)
inactive: [3] 0.044 | zotarolimus -0.097 | idasanutlin -0.034 | [1] 0.132 | lapatinib 0.066 | pictilisib 0.016

SMUG1 (UniProt Q53HV7)
inactive: filanesib 0.03 | alisertib -0.151 | gefitinib 0.086 | [2] 0.077

SMTN isoform 6 (UniProt P53814)
inactive: filanesib -0.416 | [1] 0.009 | lapatinib 0.007

SMIM13 (UniProt P0DJ93)
inactive: filanesib 0.337 | alisertib 0.012 | [1] -0.063 | gefitinib -0.018 | [2] 0.061 | lapatinib -0.086

SORBS3 (UniProt O60504)
inactive: gefitinib 0.119 | pictilisib -0.052

SMAGP (UniProt Q0VAQ4)
inactive: filanesib 0.191 | zotarolimus 0.113 | idasanutlin 0.037 | alisertib -0.207 | [1] -0.197 | gefitinib 0.054 | [2] -0.26 | lapatinib -0.307

SNX19 (UniProt Q92543)
inactive: [3] 0.125 | filanesib 0.031 | [1] 0.064 | lapatinib 0.089

SLC9A6 isoform 3 (UniProt Q92581)
inactive: zotarolimus -0.051 | idasanutlin 0.098 | [1] 0.055 | lapatinib -0.072

SOX6 (UniProt P35712)
inactive: zotarolimus 0.092 | alisertib 0.045 | [1] -0.12 | [2] 0.092 | lapatinib -0.015

SMARCD2 (UniProt Q92925)
inactive: [3] 0.16 | zotarolimus 0.064 | idasanutlin 0.263 | alisertib -0.09 | [1] -0.072 | [2] 0.143 | lapatinib 0.16 | pictilisib 0.052

SNX13 (UniProt Q9Y5W8)
inactive: filanesib 0.016 | alisertib 0.111 | [2] 0.268

SNX27 (UniProt Q96L92)
inactive: [3] 0.044 | zotarolimus 0.205 | idasanutlin 0.13 | pictilisib 0.023

SMIM4 (UniProt Q8WVI0)
inactive: [3] -0.057 | zotarolimus 0.065 | idasanutlin -0.109 | alisertib -0.061 | [1] -0.018 | gefitinib -0.044 | [2] 0.08 | lapatinib 0.108

SMR3B (UniProt P02814)
inactive: gefitinib 0.084

SNX30 (UniProt Q5VWJ9)
inactive: filanesib 0.152

SMARCA2 (UniProt P51531)
inactive: idasanutlin -0.137 | alisertib -0.003 | gefitinib 0.023 | [2] 0.036 | pictilisib 0

SMYD3 (UniProt Q9H7B4)
inactive: filanesib 0.051 | zotarolimus 0.137 | idasanutlin -0.015 | alisertib 0.046 | [1] 0.065 | gefitinib 0.098 | [2] -0.052 | lapatinib 0.005 | pictilisib 0.087

SMAD3 (UniProt P84022)
inactive: zotarolimus -0.056 | idasanutlin 0.075 | [1] 0.015 | lapatinib -0.019 | pictilisib -0.228

SMG6 (UniProt Q86US8)
inactive: filanesib -0.138 | zotarolimus -0.013 | gefitinib -0.028

SMIM29 (UniProt Q86T20)
inactive: filanesib 0.094 | zotarolimus 0.09

SLC9A8 isoform 2 (UniProt Q9Y2E8)
inactive: filanesib -0.046 | zotarolimus 0.055 | idasanutlin 0.028 | alisertib 0.011 | [1] -0.095 | gefitinib 0.063 | [2] 0.039 | lapatinib 0.031

Two entries picked at random from those above, as already listed:
SMYD3 (UniProt Q9H7B4)
inactive: filanesib 0.051 | zotarolimus 0.137 | idasanutlin -0.015 | alisertib 0.046 | [1] 0.065 | gefitinib 0.098 | [2] -0.052 | lapatinib 0.005 | pictilisib 0.087

SLC9A8 isoform 2 (UniProt Q9Y2E8)
inactive: filanesib -0.046 | zotarolimus 0.055 | idasanutlin 0.028 | alisertib 0.011 | [1] -0.095 | gefitinib 0.063 | [2] 0.039 | lapatinib 0.031

(next part)

SMPD4 isoform 2 (UniProt Q9NXE4)
inactive: [3] -0.011 | zotarolimus 0.043 | idasanutlin -0.16 | alisertib -0.117 | [1] -0.308 | [2] 0.003 | lapatinib 0.131 | pictilisib -0.108

SMARCD1 (UniProt Q96GM5)
inactive: alisertib 0.046 | [2] 0.084

SNRPC (UniProt Q5TAL2)
inactive: filanesib -0.048 | zotarolimus 0.027 | idasanutlin 0.086 | alisertib -0.122 | [1] 0.014 | gefitinib 0.007 | [2] -0.006 | lapatinib -0.118 | pictilisib 0.113

SNRPD2 (UniProt K7EJB5)
inactive: [3] -0.099 | zotarolimus -0.258 | idasanutlin 0.035 | alisertib -0.077 | [1] 0.159 | gefitinib 0.015 | [2] 0.039 | lapatinib -0.134 | pictilisib 0.244

SNAPC5 (UniProt O75971)
inactive: [3] -0.001 | idasanutlin 0.207 | [1] -0.046 | gefitinib -0.019 | lapatinib 0.038 | pictilisib -0.05

SMIM11A (UniProt P58511)
inactive: [3] -0.131 | gefitinib -0.153

SNX4 (UniProt O95219)
inactive: zotarolimus 0.044 | pictilisib 0.132

SNIP1 (UniProt Q8TAD8)
inactive: pictilisib -0.128

SLX4IP (UniProt Q5VYV7)
inactive: [1] 0.046 | lapatinib 0.26

SNRK (UniProt Q9NRH2)
inactive: [3] 0.15 | filanesib 0.158 | lapatinib 0.016
active: [1] 0.84

SMIM20 isoform 2 (UniProt Q8N5G0)
inactive: filanesib 0.093 | zotarolimus -0.037 | idasanutlin 0.095 | alisertib -0.056 | [1] 0.024 | gefitinib 0.057 | [2] 0.091 | lapatinib -0.044 | pictilisib -0.044

SP4 (UniProt Q02446)
inactive: [3] 0.033 | gefitinib -0.218 | pictilisib -0.281

SP6 (UniProt Q3SY56)
inactive: filanesib -0.089 | zotarolimus -0.054 | idasanutlin 0.098 | alisertib 0.101 | [1] 0.09 | gefitinib 0.037 | [2] 0.294 | lapatinib 0.119

SOD3 (UniProt P08294)
inactive: filanesib -0.047 | zotarolimus -0.076 | idasanutlin -0.003 | alisertib 0.018 | [1] 0.301 | [2] 0.123 | lapatinib -0.015 | pictilisib 0.109

SNRPN isoform 2 (UniProt P63162)
inactive: [3] 0.198 | idasanutlin 0.332 | [1] -0.331 | lapatinib -0.137 | pictilisib -0.225

SOX7 isoform 2 (UniProt Q9BT81)
inactive: [3] -0.135 | zotarolimus -0.019 | idasanutlin 0.127 | alisertib -0.049 | [1] 0.039 | gefitinib 0.034 | [2] -0.144 | lapatinib 0.068 | pictilisib -0.048
